Measurements reported in the M2OR odorant receptor database.
The list shows a part of the results, in another mix than the full data. The calls were merged from several studies; some rest on single wells. Some of the results follow.

Legend:
Conditions in all cases: stereoisomer not certain
[1] = biological target: T1, OR56A1 (Homo sapiens) (UniProt Q8NGH5)
T1 sequence (whole entry): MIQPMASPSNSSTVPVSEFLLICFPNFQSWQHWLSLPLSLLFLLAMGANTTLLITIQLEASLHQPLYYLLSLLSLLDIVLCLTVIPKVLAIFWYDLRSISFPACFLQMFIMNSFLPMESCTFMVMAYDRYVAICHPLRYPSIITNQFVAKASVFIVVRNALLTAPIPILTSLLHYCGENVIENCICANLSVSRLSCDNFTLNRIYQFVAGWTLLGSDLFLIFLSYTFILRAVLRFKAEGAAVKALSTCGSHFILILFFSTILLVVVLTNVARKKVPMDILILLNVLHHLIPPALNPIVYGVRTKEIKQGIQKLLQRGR
In short: (§1)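 Values were gathered from published papers (main text and supplementary material), with extra details requested from the original authors when needed, and checked for typos and inconsistencies. Each receptor–molecule pair is called responsive (active) if the original authors judged the measured signal statistically different from baseline, and non-responsive (inactive) otherwise. Assay methods varied by source, often transient mammalian cell-line luciferase assays. Recorded details include cell line, G-protein, co-transfected protein and tags.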

[2] = system: T2, OR5A1
T2 sequence (whole entry): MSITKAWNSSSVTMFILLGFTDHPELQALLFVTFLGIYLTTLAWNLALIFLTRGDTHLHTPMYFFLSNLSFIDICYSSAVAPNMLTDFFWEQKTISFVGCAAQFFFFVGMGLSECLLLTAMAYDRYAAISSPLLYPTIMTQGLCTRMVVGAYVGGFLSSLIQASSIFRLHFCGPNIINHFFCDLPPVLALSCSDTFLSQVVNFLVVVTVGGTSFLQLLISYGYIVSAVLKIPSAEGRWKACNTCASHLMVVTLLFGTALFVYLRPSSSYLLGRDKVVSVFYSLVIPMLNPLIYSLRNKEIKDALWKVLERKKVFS
In short: as §1

[3] = system: T3, OR5A1; remark: listed apart in the source
T3 sequence (whole entry): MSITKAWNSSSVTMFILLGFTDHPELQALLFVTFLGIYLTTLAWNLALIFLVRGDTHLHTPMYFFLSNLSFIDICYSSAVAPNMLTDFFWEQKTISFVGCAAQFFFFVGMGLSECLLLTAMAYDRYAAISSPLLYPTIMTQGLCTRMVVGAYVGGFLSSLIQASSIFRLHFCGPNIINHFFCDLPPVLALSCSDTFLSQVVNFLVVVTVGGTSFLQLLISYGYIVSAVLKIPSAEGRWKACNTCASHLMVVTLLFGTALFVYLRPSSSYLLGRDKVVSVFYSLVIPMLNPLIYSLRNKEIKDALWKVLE
In short: as §1

[4] = system: T4, OR5A1; remark: listed apart in the source
T4 sequence (whole entry): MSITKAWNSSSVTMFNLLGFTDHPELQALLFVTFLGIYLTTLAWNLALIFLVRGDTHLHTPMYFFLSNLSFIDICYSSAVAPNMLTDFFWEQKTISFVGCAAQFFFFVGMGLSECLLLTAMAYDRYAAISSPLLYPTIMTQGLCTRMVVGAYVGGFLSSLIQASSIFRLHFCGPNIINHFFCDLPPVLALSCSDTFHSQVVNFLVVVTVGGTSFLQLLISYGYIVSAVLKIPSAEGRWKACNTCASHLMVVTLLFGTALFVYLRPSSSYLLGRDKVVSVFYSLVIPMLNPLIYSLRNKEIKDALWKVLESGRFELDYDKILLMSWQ
In short: as §1

[5] = biological target: T5, OR5A2 (Homo sapiens) (UniProt Q8NGI9)
T5 sequence (whole entry): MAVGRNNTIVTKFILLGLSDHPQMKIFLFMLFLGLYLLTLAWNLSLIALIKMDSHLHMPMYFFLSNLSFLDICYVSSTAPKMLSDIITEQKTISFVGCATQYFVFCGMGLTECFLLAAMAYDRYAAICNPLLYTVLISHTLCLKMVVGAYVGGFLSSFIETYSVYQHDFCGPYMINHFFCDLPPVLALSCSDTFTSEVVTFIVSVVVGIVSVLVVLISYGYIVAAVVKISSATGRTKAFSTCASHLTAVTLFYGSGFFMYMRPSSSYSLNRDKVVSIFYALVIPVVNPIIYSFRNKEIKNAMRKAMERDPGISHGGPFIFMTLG
In short: as §1

[6] = biological target: T6, OR5AK2 (Homo sapiens) (UniProt Q8NH90)
T6 sequence (whole entry): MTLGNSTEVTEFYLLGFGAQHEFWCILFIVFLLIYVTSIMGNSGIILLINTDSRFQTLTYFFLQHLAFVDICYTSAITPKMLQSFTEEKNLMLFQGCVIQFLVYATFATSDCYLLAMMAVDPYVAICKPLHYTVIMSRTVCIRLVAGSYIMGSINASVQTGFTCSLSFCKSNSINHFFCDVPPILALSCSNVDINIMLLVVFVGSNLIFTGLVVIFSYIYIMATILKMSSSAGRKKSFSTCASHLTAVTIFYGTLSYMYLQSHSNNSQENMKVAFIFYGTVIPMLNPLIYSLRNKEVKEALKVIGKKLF
In short: as §1

[7] = biological target: T7, OR52N5 (Homo sapiens) (UniProt Q8NH56)
T7 sequence (whole entry): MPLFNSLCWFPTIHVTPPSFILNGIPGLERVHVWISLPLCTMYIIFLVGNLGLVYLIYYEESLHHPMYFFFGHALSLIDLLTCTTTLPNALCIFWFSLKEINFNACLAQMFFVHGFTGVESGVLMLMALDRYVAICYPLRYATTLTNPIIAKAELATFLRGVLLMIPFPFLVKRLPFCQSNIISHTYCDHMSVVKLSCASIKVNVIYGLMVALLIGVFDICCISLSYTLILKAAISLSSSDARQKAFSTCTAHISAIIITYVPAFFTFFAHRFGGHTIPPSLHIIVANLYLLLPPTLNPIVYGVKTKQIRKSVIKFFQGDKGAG
In short: as §1

[8] = biological target: T8, OR56A4 (Homo sapiens) (UniProt Q8NGH8)
T8 sequence (whole entry): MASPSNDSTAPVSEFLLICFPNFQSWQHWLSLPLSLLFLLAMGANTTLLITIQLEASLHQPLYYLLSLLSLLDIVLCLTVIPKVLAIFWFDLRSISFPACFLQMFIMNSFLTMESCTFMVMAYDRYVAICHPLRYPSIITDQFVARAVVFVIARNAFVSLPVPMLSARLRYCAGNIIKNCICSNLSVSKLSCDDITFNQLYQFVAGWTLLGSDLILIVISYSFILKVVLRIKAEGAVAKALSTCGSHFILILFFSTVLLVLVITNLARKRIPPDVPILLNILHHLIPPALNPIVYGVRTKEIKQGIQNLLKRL
In short: as §1

[9] = biological target: T9, OR56A5 (Homo sapiens) (UniProt P0C7T3)
T9 sequence (whole entry): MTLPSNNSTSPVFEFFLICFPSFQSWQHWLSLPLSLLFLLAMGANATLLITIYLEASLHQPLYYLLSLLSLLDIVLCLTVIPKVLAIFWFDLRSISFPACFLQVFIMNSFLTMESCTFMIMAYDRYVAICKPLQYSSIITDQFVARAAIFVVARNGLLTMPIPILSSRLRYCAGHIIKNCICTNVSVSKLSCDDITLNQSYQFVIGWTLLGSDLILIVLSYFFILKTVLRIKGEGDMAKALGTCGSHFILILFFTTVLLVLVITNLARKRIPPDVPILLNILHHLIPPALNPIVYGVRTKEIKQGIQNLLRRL
In short: as §1

Measured: odorant receptor agonist call

CC1=NC(C)SC1C (configuration not stated)
inactive: [1] | [2] | [3] | [4] | [5] | [6]

CCC=CCCO
inactive: [7] | [1] | [8] | [9] | [2] | [3] | [4] | [5] | [6]

CCCCCOC(C)=O
inactive: [7] | [1] | [8] | [9] | [2] | [3] | [4] | [5] | [6]

CC(C)(C)c1ccc(CCC=O)cc1
inactive: [1] | [8] | [9] | [2] | [3] | [4] | [5] | [6]
active: [7]

O=CCc1ccccc1
inactive: [1] | [8] | [9] | [2] | [3] | [4] | [5] | [6]
active: [7]

CCCCCC(=O)O
inactive: [7] | [1] | [8] | [9] | [2] | [3] | [4] | [5] | [6]

O=C1CCCCC1
inactive: [1] | [2] | [3] | [4] | [5] | [6]
